Measured values published in article PMC9765618.

Protein sequences, listed by entry. Tags and fused reporters are not part of them. Lines headed by an entry give the natural chain unless they say otherwise; changes in a name come on top. Chains listed by the source or under a name are the forms on record and can include a tag or linker.
Flag-tagged human Sp100A (P23497, form named): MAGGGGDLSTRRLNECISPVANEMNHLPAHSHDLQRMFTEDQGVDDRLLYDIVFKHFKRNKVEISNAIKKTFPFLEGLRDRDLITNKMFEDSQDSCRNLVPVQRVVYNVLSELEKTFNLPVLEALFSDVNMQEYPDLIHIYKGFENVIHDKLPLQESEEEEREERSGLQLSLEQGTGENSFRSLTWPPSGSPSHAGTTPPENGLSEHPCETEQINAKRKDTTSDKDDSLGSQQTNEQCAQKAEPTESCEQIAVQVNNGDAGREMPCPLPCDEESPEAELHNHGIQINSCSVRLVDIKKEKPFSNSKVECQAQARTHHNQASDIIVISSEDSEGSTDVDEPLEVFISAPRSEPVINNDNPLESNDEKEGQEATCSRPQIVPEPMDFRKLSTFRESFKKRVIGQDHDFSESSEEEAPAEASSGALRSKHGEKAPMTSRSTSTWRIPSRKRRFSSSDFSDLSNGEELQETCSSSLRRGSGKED
UniProt P14618: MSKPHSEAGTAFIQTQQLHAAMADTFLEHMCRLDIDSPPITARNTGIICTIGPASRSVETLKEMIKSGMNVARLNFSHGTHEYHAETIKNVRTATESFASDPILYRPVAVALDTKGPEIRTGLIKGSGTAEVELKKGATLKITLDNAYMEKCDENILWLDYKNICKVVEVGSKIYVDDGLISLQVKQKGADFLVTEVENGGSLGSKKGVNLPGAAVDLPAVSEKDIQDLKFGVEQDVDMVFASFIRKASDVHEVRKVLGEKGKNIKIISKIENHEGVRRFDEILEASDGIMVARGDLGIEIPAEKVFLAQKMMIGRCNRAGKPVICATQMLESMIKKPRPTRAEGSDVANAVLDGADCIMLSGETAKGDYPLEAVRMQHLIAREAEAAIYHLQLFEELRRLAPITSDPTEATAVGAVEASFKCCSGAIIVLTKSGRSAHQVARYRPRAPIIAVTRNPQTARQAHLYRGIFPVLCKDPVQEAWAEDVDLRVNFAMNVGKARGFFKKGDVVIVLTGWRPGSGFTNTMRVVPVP

Legend:
[1] = biological target: Flag-Sp100A NLS mutant (human) (UniProt P23497); assay: co-IP; cotransfected Flag and HA constructs; whole-cell lysates immunoprecipitated with anti-Flag antibody, blotted with anti-HA and anti-Flag
[2] = biological target: Flag-tagged human Sp100A (human) (UniProt P23497); assay: as above

| binding [1] | binding [2] | Substance |
| --- | --- | --- |
| binds | – | HA-tagged human PKM2 (from UniProt P14618 1-531) (enzyme) |
| – | binds | truncated HA-PKM2, B1 domain (aa 116 to 218) (from UniProt P14618) (domain or fragment) |

These are yes or no findings as the source states them, for the method shown. Binding seen in cells or lysates may run through a third protein. Binding calls can cover weak binding; strength is not graded here.
